Measurements as given in patent publication US20260284208A1, “SYSTEM” (Oxford University Innovation Limited, priority 2023, published 2026).
Further values from the same series stand in other lists.

Test system: library of 8,380 IKZF3 degrons (ZF-eGFP/mCherry reporter) in Jurkat cells
Assay: Pooled library screen (FACS, NGS, limma voom LogFC of positive vs negative read counts)
Format: cell-based, human
Experimental: A library of 8,380 IKZF3 degrons was cloned into pLVX-Sprout to create the eGFP/mCherry protein degradation reporter plasmid pool. A lentivirus pool was then generated using the Lenti-X lentiviral vector production method.
Jurkat cells were transduced at a multiplicity of infection of <0.3 with the lentivirus vector library in order to maximise the number of cells with a single integration. Transductions were carried out in 6 well TC-treated cell culture dishes (Falcon) with 3×10^6 cells per well. Cells were incubated for 2 days at 37° C. and 5% CO2 before the supernatant was removed and replaced with fresh media. 6 days post-transduction, mCherry+ cells were isolated via FACS using the FACS Aria Fusion (BD) in a buffer containing PBS (Gibco), 2 mM EDTA (Gibco), 25 mM HEPES (Sigma) and 1% BSA (Sigma). 8 days later, cells were treated with DMSO or a thalidomide analog for 18 hours at 37° C. and 5% CO2. mCherry+GFPlow and NOT(mCherry+GFPlow) cells were sorted by FACS using the FACS Aria Fusion (BD). DMSO treated cells were used to set the mCherry+GFPlow gate and dead cells were excluded from sorting by staining cells with 1 μg/mL DAPI (ThermoFisher). gDNA was isolated using the Maxwell RSC 48 (Promega). gDNA from cells that were unsorted and untreated were also isolated to determine the library representation on the day of compound treatment. Throughout the screen >600× coverage of the library was maintained. 3 biological replicates were carried out with a new transduction taking place each time.
A two-step PCR was used where the first PCR (PCR1) amplified the integrated degron sequence from gDNA and the second PCR (PCR2) added Illumina adaptors and barcodes to permit multiplexing. See Supp F for PCR1 and PCR2 primers. Q5 Hot Start High-Fidelity 2× Master Mix (New England Biolabs) was used for both PCRs. Sufficient gDNA was amplified in PCR1 in order to maintain >600× coverage and amplicons were purified using solid phase reversible immobilization (SPRI) beads (Beckman Coulter). Purified PCR1 products were analysed on the Tapestation 4200 (Agilent) to confirm purity prior to proceeding to PCR2. Sufficient PCR1 product was amplified in PCR2 in order to maintain >600× coverage and amplicons were run on a 2% agarose TAE gel. Target bands were excised and purified using the NucleoSpin Gel and PCR Clean-up Kit (Machery Nagel). Amplicons were analysed on the Tapestation 4200 and quantified using Qubit dsDNA HS kit (ThermoFisher). PCR products were pooled and sequenced as paired-reads on the NovaSeq (Illumina) using a SP2 200 cycles kit (Illumina).
Count distributions, percentage of read mapping, library coverage and replicate correlation per sample were assessed for QC purposes.
To carry out the library screen, we used the same plasmid construct as in our earlier flow cytometry assays, but pooling all 8,380 mutants together into one Jurkat population, ensuring a copy number of one plasmid per cell (FIG. 4B). […] These GFP-negative cells were then separated from the remaining GFP-positive population using fluorescence activated cell sorting (FACS). These two populations were then sequenced and the relative abundance of every mutant in both populations compared to provide a log FC value for each mutant sequence. This value indicated how frequently a sequence is observed in the GFP-negative population relative to the GFP-positive population, and therefore how effective a degron it is for that particular IMID compound.

Question: What does the source list for `O=C1CCC(N2C(=O)c3ccc(N4CCOCC4)cc3C2=O)C(=O)N1` (stereo not drawn) [B03]?
Answer: B03_logFC (Degron-ID 6746, SEQ ID NO 4417, 46L_47S_49P_50I_52G_53F_54H_55C_67L_): 2.022; B03_logFC (Degron-ID 6753, SEQ ID NO 4315, 46L_47S_49P_50I_52G_53F_54Q_55C_67L_): 2.184; B03_logFC (Degron-ID 6755, SEQ ID NO 3780, 46L_47S_49P_50I_52G_53F_54S_55C_67L_): 3.045; B03_logFC (Degron-ID 6756, SEQ ID NO 3909, 46L_47S_49P_50I_52G_53F_54T_55C_67L): 2.834; B03_logFC (Degron-ID 6760, SEQ ID NO 3748, 46L_47T_49P_50I_52G_53F_54A_55C_67L_): 3.125; B03_logFC (Degron-ID 6771, SEQ ID NO 4404, 46L_47T_49P_50I_52G_53F_54N_55C_67L_): 2.035; B03_logFC (Degron-ID 6776, SEQ ID NO 3663, 46L_47T_49P_50I_52G_53F_54T_55C_67L_): 3.31; B03_logFC (Degron-ID 6780, SEQ ID NO 3686, 46L_47V_49P_50I_52G_53F_54A_55F_67L_): 3.253; B03_logFC (Degron-ID 6783, SEQ ID NO 4253, 46L_47V_49P_50I_52G_53F_54E_55C_67L_): 2.29; B03_logFC (Degron-ID 6785, SEQ ID NO 3716, 46L_47V_49P_50I_52G_53F_54G_55C_67L_): 3.179; B03_logFC (Degron-ID 6786, SEQ ID NO 4432, 46L_47V_49P_50I_52G_53F_54H_55C_67L_): 2.001; B03_logFC (Degron-ID 6788, SEQ ID NO 4346, 46L_47V_49P_50I_52G_53F_54K_55C_67L_): 2.131; B03_logFC (Degron-ID 6790, SEQ ID NO 4337, 46L_47V_49P_50I_52G_53F_54M_55C_67L_): 2.149; B03_logFC (Degron-ID 6794, SEQ ID NO 3800, 46L_47V_49P_50I_52G_53F_54R_55C_67L_): 3.008; B03_logFC (Degron-ID 6800, SEQ ID NO 3661, 46L_47W_49P_50I_52G_53F_54A_55C_67L_): 3.322; B03_logFC (Degron-ID 6804, SEQ ID NO 3781, 46L_47W_49P_50I_52G_53F_54F_55C_67L_): 3.044; B03_logFC (Degron-ID 6808, SEQ ID NO 3715, 46L_47W_49P_50I_52G_53F_54K_55C_67L_): 3.179; B03_logFC (Degron-ID 6809, SEQ ID NO 4319, 46L_47W_49P_50I_52G_53F_54L_55C_67L_): 2.176; B03_logFC (Degron-ID 6817, SEQ ID NO 3736, 46L_47W_49P_50I_52G_53F_54V_55C_67L_): 3.148; B03_logFC (Degron-ID 6818, SEQ ID NO 4422, 46L_47W_49P_50I_52G_53F_54W_55C_67L_): 2.016; B03_logFC (Degron-ID 6819, SEQ ID NO 3696, 46L_47W_49P_50I_52G_53F_54Y_55C_67L_): 3.231; B03_logFC (Degron-ID 6820, SEQ ID NO 3657, 46L_47Y_49P_50I_52G_53F_54A_55C_67L_): 3.332; B03_logFC (Degron-ID 6824, SEQ ID NO 3919, 46L_47Y_49P_50I_52G_53F_54F_55C_67L): 2.815; B03_logFC (Degron-ID 6825, SEQ ID NO 3824, 46L_47Y_49P_50I_52G_53F_54G_55C_67L_): 2.963; B03_logFC (Degron-ID 6827, SEQ ID NO 3865, 46L_47Y_49P_50I_52G_53F_54I_55C_67L): 2.895; B03_logFC (Degron-ID 6828, SEQ ID NO 3807, 46L_47Y_49P_50I_52G_53F_54K_55C_67L_): 2.998; B03_logFC (Degron-ID 6830, SEQ ID NO 3853, 46L_47Y_49P_50I_52G_53F_54M_55C_67L): 2.917; B03_logFC (Degron-ID 6831, SEQ ID NO 3839, 46L_47Y_49P_50I_52G_53F_54N_55C_67L_): 2.946; B03_logFC (Degron-ID 6838, SEQ ID NO 4333, 46L_47Y_49P_50I_52G_53F_54W_55C_67L_): 2.154; B03_logFC (Degron-ID 6839, SEQ ID NO 3760, 46L_47Y_49P_50I_52G_53F_54Y_55C_67L_): 3.11; B03_logFC (Degron-ID 7613, SEQ ID NO 4385, 46L_47A_49E_50I_52G_53F_54Q_55C_67L_): 2.061; B03_logFC (Degron-ID 7614, SEQ ID NO 3929, 46L_47A_49E_50I_52G_53F_54R_55C_67L): 2.792; B03_logFC (Degron-ID 7615, SEQ ID NO 3827, 46L_47A_49E_50I_52G_53F_54S_55C_67L_): 2.958; B03_logFC (Degron-ID 7616, SEQ ID NO 3668, 46L_47A_49E_50I_52G_53F_54T_55C_67L_): 3.297; B03_logFC (Degron-ID 7636, SEQ ID NO 3941, 46L_47C_49E_50I_52G_53F_54T_55C_67L): 2.777; B03_logFC (Degron-ID 7680, SEQ ID NO 3796, 46L_47F_49E_50I_52G_53F_54A_55C_67L_): 3.019; B03_logFC (Degron-ID 7683, SEQ ID NO 4316, 46L_47F_49E_50I_52G_53F_54E_55C_67L_): 2.182; B03_logFC (Degron-ID 7684, SEQ ID NO 4353, 46L_47F_49E_50I_52G_53F_54F_55C_67L_): 2.118; B03_logFC (Degron-ID 7686, SEQ ID NO 3751, 46L_47F_49E_50I_52G_53F_54H_55C_67L_): 3.123; B03_logFC (Degron-ID 7687, SEQ ID NO 3782, 46L_47F_49E_50I_52G_53F_54I_55C_67L_): 3.042; B03_logFC (Degron-ID 7688, SEQ ID NO 3731, 46L_47F_49E_50I_52G_53F_54K_55C_67L_): 3.154; B03_logFC (Degron-ID 7690, SEQ ID NO 3755, 46L_47F_49E_50I_52G_53F_54M_55C_67L_): 3.117
